PubChem BioAssay AID1487 (National Center for Advancing Translational Sciences (NCATS), 2009)
The list shows a part of the results. These are further read-outs of the screen, such as a control signal, another cell line or another target. No call is given for them. Compounds called inactive in the main read-out are mostly missing here. Words in brackets tell the shape of the fitted curve; partial curves, single points and poor fits give uncertain potencies.

Assay: qHTS Assay for Modulators of Lamin A Splicing
Conditions: HeLa LMNA splicing GFP/RFP minigene ratio, 48 h
In short: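 S3 HeLa stable clones carrying a lamin A-EGFP splicing minigene plus DsRed2 were seeded at 600 cells/well in Opti-MEM with 2% FBS, pin-dosed and incubated 48 h at 37°C. Acumen cytometry (488 nm) gave the GFP/RFP total-intensity ratio.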

[1] = measured here: RFP viability control channel
[2] = measured here: GFP splicing reporter channel

Structure (SMILES) | AC50 [1] | AC50 [2]
Cc1ccc(OCCCCn2cnc3ccccc32)c(C)c1 | 10 µM [rising, partial curve] | 
CC(/C=N/NC(=O)c1cc(-c2ccc(C)s2)[nH]n1)=C\c1ccccc1 | 3.98 µM [rising, partial curve] | 
Cc1ccc2nc(-c3sc4nc(C)ccc4c3N)[nH]c2c1 | 3.55 µM [rising, partial curve, poor fit] | 
CCN(Cc1ccccc1)S(=O)(=O)c1cc(C(=O)NC2CCCCCC2)ccc1OC | 25.1 µM [rising, partial curve] | 6.31 µM [rising, partial curve, poor fit]
COc1ccc(-c2c3c(=O)n(C)c(=O)n(C)c3cn2C2CCCCC2)cc1 |  | 31.6 µM [rising, single point]
CCOC(=O)c1cccc(Nc2cc(-c3ccccc3)ncn2)c1 | 3.98 µM [falling, partial curve, poor fit] | 35.5 µM [falling, partial curve, poor fit]
CC(=O)Nc1ccc(S(=O)(=O)NCCSCc2cccc(Cl)c2)cc1 | 15.8 µM [rising, partial curve] | 
Cc1nc(-c2ccccc2)sc1CCNC(=O)C(=O)Nc1ccc2c(c1)OCO2 | 11.2 µM [falling, partial curve] | 14.1 µM [falling, single point]
O=C(CC(Cc1ccccc1)C(=O)O)NCCc1ccc2c(c1)OCO2 (stereo not drawn) | 8.91 µM [rising, partial curve, poor fit] | 
COCCCNC(=O)c1ccc(-n2nc(C(F)(F)F)cc2-c2cccs2)cc1 | 17.8 µM [rising, single point] | 
COc1ccc(-c2nc3ccc(NS(=O)(=O)c4ccccc4)cc3o2)cc1 | 31.6 µM [rising, single point] | 35.5 µM [rising, single point]
CSc1ncc(OCc2ccccc2)c(=O)[nH]1 | 0.0447 µM [falling, full curve, poor fit] | 0.141 µM [falling, full curve]
O=C(O)C1CCN(c2ccc(Cl)nn2)CC1 | 8.91 µM [falling, full curve, poor fit] | 7.08 µM [falling, partial curve]
Nc1c(C(=O)NCc2ccc3c(c2)OCO3)c2nc3ccccc3nc2n1CCCN1CCOCC1 | 31.6 µM [falling, partial curve] | 20 µM [falling, partial curve]
O=C(c1ccc(S(=O)(=O)NCC2CCCO2)cc1)N1CCc2ccccc21 (stereo not drawn) | 11.2 µM [rising, partial curve] | 7.94 µM [rising, partial curve]

As entered above:
AC50 [1] with CC(=O)Nc1ccc(S(=O)(=O)NCCSCc2cccc(Cl)c2)cc1 reads 15.8 µM [rising, partial curve]
AC50 [2] with CCOC(=O)c1cccc(Nc2cc(-c3ccccc3)ncn2)c1 reads 35.5 µM [falling, partial curve, poor fit]
